15 compounds from PubChem BioAssay AID192 (DTP/NCI, 2004) can be followed below.

The structures appear in SMILES notation. The list shows only some results of the screen, not a fair sample: it gathers tests that were run many times, whatever their T/C, doses with no T/C, and many T/C values between a quarter and a half above the control. Other doses and runs of a compound stand elsewhere. T/C: endpoint of the treated group in % of that of the vehicle group. Some doses have a count of surviving animals in place of a T/C: the source files T/C as zero there, which appears to mark a toxic dose or a test without result, not a measured value. Some doses without a T/C left all or most animals alive at the check, yet need not have been tolerated: survival well below the control is almost never listed, so the zero probably covers shortened survival too. Survivors were counted at the toxicity check, usually on the fifth day, unless a day is given; later deaths do not show. Schedule codes are those of the source, read here as Q, the interval in days (D) or hours (H), X, the number of doses. Some doses were run more than once; the values are given in rising order. Where survival is the endpoint, this PubChem deposit counts one and a half times the control or more as active, and values a quarter to a half above the control carry no call in these data; other NCI protocols may use other cut-offs. Counts like (3×) count equal records among those shown. Some T/C values are followed by the survivors on the day toxicity was checked, most often the fifth; without a count, all were alive then.

This assay concerns BDF1 mice, B16 melanoma ip, median survival T/C. Nature of the assay: NCI In Vivo Anticancer Drug Screen. Data for tumor model B16 Melanoma (intraperitoneal) in B6D2F1 (BDF1) mice. The following applies: T/C endpoint: median survival time, higher T/C = longer survival. The method, boiled down:
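Transplantable tumor model; survival or tumor size measured; reported as T/C, treated over vehicle control.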

Setting [1] is: dose: 100.0 mg/kg/injection, schedule: Q01DX009 (ip), vehicle: saline.
The mark [2] stands for this setting: dose: 400.0 mg/kg/injection, schedule: Q01DX009 (ip), vehicle: saline.
[3] abbreviates: dose: 800.0 mg/kg/injection, schedule: Q01DX009 (ip), vehicle: saline.
Setting [4] is: dose: 50.0 mg/kg/injection, schedule: Q01DX009 (ip), vehicle: saline.

For the compound `Nc1n[nH]c(N)n1`, the T/C under setting [1] was 91, 95 [5 of 6 alive], 96, 97 (4×), 100 (4×), 104, 105, 106 (2×), 107, 110, 111 (2×), 113 (2×), 113 [5 of 6 alive], 115, 116 % of control; the T/C (dose: 200.0 mg/kg/injection, schedule: Q01DX009 (ip), vehicle: saline with Tween-80) was 126 % of control; the T/C (dose: 200.0 mg/kg/injection, schedule: Q01DX009 (ip), vehicle: saline) is 95, 97 (2×), 99, 102 (4×), 104, 105 (2×), 106, 107, 108, 109, 110, 112, 113 (3×), 113 [5 of 6 alive] (2×), 117, 120, 123 % of control (2×); the T/C (dose: 400.0 mg/kg/injection, schedule: Q01DX009 (ip), vehicle: saline with Tween-80, evaluated on day 45) is 95 and 102 % of control; the T/C (dose: 400.0 mg/kg/injection, schedule: Q01DX009 (ip), vehicle: saline with Tween-80, evaluated on day 60) was 102 and 126 % of control; the T/C under setting [2] was 88, 93, 97 (2×), 100 (4×), 102 (2×), 102 [5 of 6 alive], 103, 105 (2×), 107, 108, 109, 110 (3×), 110 [5 of 6 alive], 113, 123, 155, 166 % of control [5 of 6 alive]. The T/C was 100 % of control (2×) (dose: 800.0 mg/kg/injection, schedule: Q01DX009 (ip), vehicle: saline with Tween-80, evaluated on day 45); 100 and 130 % of control (dose: 800.0 mg/kg/injection, schedule: Q01DX009 (ip), vehicle: saline with Tween-80, evaluated on day 60); 90, 91, 92 (2×), 93, 93 [5 of 6 alive], 97, 100 (2×), 102 [4 of 6 alive], 103, 105, 108 [9 of 10 alive], 109, 111, 112, 113, 116 (2×), 117 (2×), 128, 133, 139 % of control under setting [3]. Also, the survivor count under setting [1] is given as 6 of 6, the survivor count under setting [2] is 6 of 6 and the survivor count under setting [3] is reported as 6 of 6.

Take `CC[C@]12CN3CCc4c([nH]c5ccccc45)[C@@](C(=O)OC)(c4cc5c(cc4OC)N(C=O)[C@H]4[C@@](O)(C(=O)OC)[C@H](OC(C)=O)[C@]6(CC)C=CCN7CC[C@]54[C@@H]76)C[C@H](C3)[C@H]1O2`: the T/C reads like this: (dose: 1.0 mg/kg/injection, schedule: Q01DX011 (ip), vehicle: saline) 126 % of control; (dose: 2.0 mg/kg/injection, schedule: Q01DX011 (ip), vehicle: saline) 148 % of control.

As for `COC(=O)c1ccc(=O)c2nc3/c(=C/O)c(O)cc(=O)c3[nH]c12`, the survivor count is 10 of 10 (dose: 75.0 micrograms/kg/injection, schedule: Q04DX003 (ip), vehicle: saline with Tween-80); 10 of 10 (dose: 150.0 micrograms/kg/injection, schedule: Q04DX003 (ip), vehicle: saline with Tween-80); 10 of 10 (dose: 300.0 micrograms/kg/injection, schedule: Q04DX003 (ip), vehicle: saline with Tween-80).

As to `C[C@@H]1CCC[C@@H](NC(=O)N(CCCl)N=O)C1`, the T/C was 131 % of control (dose: 9.38 mg/kg/injection, schedule: Q01DX009 (ip), vehicle: Klucel (hydroxypropylcellulose) (HPC)) and 134 % of control (dose: 9.4 mg/kg/injection, schedule: Q01DX009 (ip), vehicle: Klucel (hydroxypropylcellulose) (HPC)). The survivor count (dose: 75.0 mg/kg/injection, schedule: Q01DX009 (ip), vehicle: Klucel (hydroxypropylcellulose) (HPC)) is 10 of 10.

Take `CCOC(=O)CCCN(c1sc(C)c(C)c1C(=O)OCC)S(=O)(=O)c1ccc(C)cc1`: where the note is “dose: 25.0 mg/kg/injection, schedule: Q04DX003 (ip), vehicle: saline with Tween-80”, the T/C was 130 % of control.

As for `COc1cccc(NC(=O)CCC(=O)O)c1`, for the setting “dose: 0.78 mg/kg/injection, schedule: Q01DX009 (ip), vehicle: Klucel (hydroxypropylcellulose) (HPC)”, the survivor count is listed as 10 of 10.

As to `Cc1ccc2c(ccc(/C=C/c3ccc(O)c4ncccc34)[n+]2C)c1`, the survivor count (dose: 50.0 mg/kg/injection, schedule: Q01DX009 (ip), vehicle: saline with Tween-80) was 10 of 10; the survivor count (dose: 150.0 mg/kg/injection, schedule: Q01DX009 (ip), vehicle: saline sonified) is 6 of 6; the survivor count (dose: 300.0 mg/kg/injection, schedule: Q01DX009 (ip), vehicle: saline sonified) was 6 of 6. The T/C (dose: 75.0 mg/kg/injection, schedule: Q01DX009 (ip), vehicle: saline sonified) was 131 % of control.

Take `CCCCCCCCCCCCCC(=O)CC`: the survivor count by setting is: (dose: 37.5 mg/kg/injection, schedule: Q01DX009 (ip), vehicle: saline with Tween-80) 9 of 10; (dose: 75.0 mg/kg/injection, schedule: Q01DX009 (ip), vehicle: saline with Tween-80) 9 of 10 and 10 of 10; (dose: 150.0 mg/kg/injection, schedule: Q01DX009 (ip), vehicle: saline with Tween-80) 10 of 10; (dose: 300.0 mg/kg/injection, schedule: Q01DX009 (ip), vehicle: saline with Tween-80) 7 of 10.

For the compound `O=C(NP(=O)(N1CC1)N1CC1)c1cc(I)ccc1I`, the T/C was 128 % of control (dose: 16.0 mg/kg/injection, schedule: Q02DX009 (ip), vehicle: saline with Tween-80) and 148 % of control (dose: 32.0 mg/kg/injection, schedule: Q02DX009 (ip), vehicle: saline with Tween-80). The survivor count is, setting by setting: (dose: 128.0 mg/kg/injection, schedule: Q02DX009 (ip), vehicle: saline with Tween-80) 10 of 10; (dose: 128.0 mg/kg/injection, schedule: Q02DX009 (ip), vehicle: saline) 10 of 10; (dose: 256.0 mg/kg/injection, schedule: Q02DX009 (ip), vehicle: saline with Tween-80) 5 of 10; (dose: 256.0 mg/kg/injection, schedule: Q02DX009 (ip), vehicle: saline) 9 of 10; (dose: 512.0 mg/kg/injection, schedule: Q02DX009 (ip), vehicle: saline with Tween-80) 8 of 10; (dose: 512.0 mg/kg/injection, schedule: Q02DX009 (ip), vehicle: saline) 9 of 10.

In the case of `C[n+]1ccccc1/C=C/c1cccc([N+](=O)[O-])c1`, where the note is “dose: 10.0 mg/kg/injection, schedule: Q04DX003 (ip), vehicle: saline with Tween-80”, the survivor count was 10 of 10.

As to `c1ccc(C[n+]2ccc3ccccc3c2)cc1`, the T/C (dose: 12.5 mg/kg/injection, schedule: Q01DX009 (ip), vehicle: saline) was 126 % of control. In addition, the survivor count under setting [4] is 5 of 6 and 6 of 6.

Turning to `Nc1ncnc2c1ccn2C1OC(CO)C(O)C1O` (stereo unspecified), the T/C (dose: 1.25 mg/kg/injection, schedule: Q01DX009 (ip), vehicle: saline) is 125 % of control. For the same compound, the survivor count by setting is: (dose: 2.5 mg/kg/injection, schedule: Q01DX009 (ip), vehicle: saline) 10 of 10; (dose: 4.0 mg/kg/injection, schedule: Q01DX009 (ip), vehicle: Klucel (hydroxypropylcellulose) (HPC)) 10 of 10; (dose: 8.0 mg/kg/injection, schedule: Q01DX009 (ip), vehicle: Klucel (hydroxypropylcellulose) (HPC)) 10 of 10; (dose: 16.0 mg/kg/injection, schedule: Q01DX009 (ip), vehicle: Klucel (hydroxypropylcellulose) (HPC)) 5 of 10.

In the case of `C(=C\c1ccncc1)/c1ccncc1`, the T/C is, setting by setting: (dose: 100.0 mg/kg/injection, schedule: Q01DX009 (ip), vehicle: Klucel (hydroxypropylcellulose) (HPC)) 130 % of control; (dose: 200.0 mg/kg/injection, schedule: Q01DX009 (ip), vehicle: Klucel (hydroxypropylcellulose) (HPC)) 135 % of control; (dose: 400.0 mg/kg/injection, schedule: Q01DX009 (ip), vehicle: Klucel (hydroxypropylcellulose) (HPC)) 131 % of control.

On to `O=C(NCCCN1CCOCC1)C(Oc1ccccc1)Oc1ccccc1`, for which the survivor count is, setting by setting: (dose: 0.39 mg/kg/injection, schedule: Q01DX009 (ip), vehicle: Klucel (hydroxypropylcellulose) (HPC)) 10 of 10; (dose: 3.12 mg/kg/injection, schedule: Q01DX009 (ip), vehicle: Klucel (hydroxypropylcellulose) (HPC)) 10 of 10; (dose: 6.25 mg/kg/injection, schedule: Q01DX009 (ip), vehicle: Klucel (hydroxypropylcellulose) (HPC)) 9 of 10 and 10 of 10; (dose: 12.5 mg/kg/injection, schedule: Q01DX009 (ip), vehicle: Klucel (hydroxypropylcellulose) (HPC)) 10 of 10; (dose: 50.0 mg/kg/injection, schedule: Q01DX009 (ip), vehicle: Klucel (hydroxypropylcellulose) (HPC)) 10 of 10.

In the case of `CCN(CC)CCSC(=O)C(O)(c1ccccc1)C1CCCC1` (stereo unspecified), the T/C reads like this: under setting [4], 134 % of control; under setting [1], 127 % of control [5 of 6 alive].
